Data as given in PubChem BioAssay AID504786 (Drosophila RNAi Screening Center, 2011).
Screen: 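Fly genes required for HIF-dependent transcription when hypoxia is mimicked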 (primary screen). Cell system: Drosophila S2 cells with a stable HIF luciferase reporter. Reagents: long dsRNA against Drosophila genes, about 0.2 µg dsRNA per well of a 384-well plate. Time to read-out: three days of knock-down, then 20 h of DFO before reading. Challenge: desferrioxamine (DFO) at 100 µM, an iron chelator that mimics hypoxia, for 20 h. Read-out: 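HIF reporter luminescence in cells given 100 µM DFO for 20 h, using the mouse ldh-a hypoxia-response element, scored as per-plate z-scores; higher means greater loss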. Direction: z-score: higher = stronger loss of HIF reporter signal.
The deposit covers about 21,000 reagents; shown is an unselected part of those with a known target gene and a result. 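Primary screen; positive scores mean lost reporter signal, so the sign may be inverted from the usual convention.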 Reagents against one gene are numbered here. A plus sign joins genes that one reagent is predicted to hit. Not all columns of the deposit are shown.

predicted target	reagent no.	z-score, replicate 1	z-score, replicate 2
CG31639	1	-0.5	-0.5
Ir48b	1	-0.1	-0.4
CysRS-m	1	-0.2	-0.4
mAChR-C	1	-0.3	-0.4
Sld5	1	-0.1	0.2
wam	1	-0.5	-0.6
CG4496	1	-0.4	-0.3
gce	1	-0.3	-0.3
gce	2	-0.1	0.1
Cpr65Aw	1	0.5	-0.3
CG13590	1	-0.1	-0.3
CG13884	1	-0.3	0.7
CalpC	1	-0.3	0.6
CG11384	1	-0.3	-0.3
Iml1	1	-0.2	-0.3
CG14568	1	-0.3	0.1
lin-52	1	-0.2	-0.7
dap	1	-0.5	-0.6
ome	1	-0.5	-0.3
ome	2	0	0.1
ome	3	-0.2	-0.5
CG13972	1	0.3	1.2
CG13243	1	-0.1	-0.2
CG6923	1	-0.2	-0.4
CG42586 + CG31775	1	-0.4	-0.8
brk	1	0.3	0.8
CG13482	1	-0.3	-0.1
CCAP-R	1	-0.1	-0.5
CCAP-R	2	-0.3	-0.7
ATPsynGL	1	-0.2	-0.4
kek5	1	-0.5	-0.4
Epp	1	-0.2	-0.3
Clp	1	3	2.9
CG11403	1	0	-0.2
TfIIA-L	1	0	0.5
CG13390	1	0	0
CG14644	1	-0.3	-0.2
CG13309	1	-0.2	0.1
SREBP	1	3.5	2.3
CG8051	1	-0.9	-1.4
cwo	1	-0.6	-1.3
CG11585	1	-0.3	0
CHOp24	1	-0.3	-0.2
CG15517	1	-0.2	0.4
HemK2 + Snapin	1	-0.5	-0.1
HemK2 + Snapin	2	-0.2	-0.9
eIF2Balpha	1	-0.4	-0.1

Targets listed so far whose target name starts with O or o:
predicted target	reagent no.	z-score, replicate 1	z-score, replicate 2
ome	1	-0.5	-0.3
ome	2	0	0.1
ome	3	-0.2	-0.5

The results go on:
predicted target	reagent no.	z-score, replicate 1	z-score, replicate 2
CG8945	1	-0.3	-0.7
CG8945	2	-0.3	0.2
CG4025	1	0.1	-0.5
CG5645	1	0.1	1.1
Tsp42Eo	1	-0.2	0
sxc	1	0.3	0
CG7272	1	-0.2	-0.4
Moe	1	0	0.6
CG11180	1	-0.1	-0.2
mesh	1	-0.5	-0.6
mesh	2	-0.2	-0.4
mesh	3	-0.1	0.3
CG9498	1	-0.1	-0.8
CG18281	1	-0.3	-0.5
CG3323	1	-0.2	-0.4
sl	1	-0.3	-0.1
CG13197	1	-0.4	-0.3
resilin	1	-0.1	-0.2
resilin	2	-0.3	-0.4
CG9130 + CG9133	1	-0.3	-0.3
CG9130 + CG9133	2	2	2.2
HP1b	1	-0.1	-0.1
CG10171	1	-0.3	0
CG14535	1	-0.2	-0.4
Sf3b6	1	4.9	3.3
Dip-C	1	-0.4	-0.6
CG14441	1	-0.2	-0.1
zpg	1	-0.4	0.7
CanA1	1	-0.2	-0.6
lz	1	-0.3	-0.9
Eaf	1	0.9	1
Eaf	2	-0.1	-0.4
CG31327	1	-0.2	0
e(y)2	1	-0.3	0.7
CG5515	1	-0.2	-0.1
Glg1	1	-0.2	-0.6
Glg1	2	-0.2	0.9
Glg1	3	-0.4	-0.4
